{
  "sequences": {"note": "Chains of the proteins cited; added tags and fusions are not shown. Residues count along the entry.", "UniProt Q8L5W7, residues 1-100": "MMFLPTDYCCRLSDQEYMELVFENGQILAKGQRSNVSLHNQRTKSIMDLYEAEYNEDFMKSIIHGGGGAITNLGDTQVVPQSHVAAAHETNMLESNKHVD", "UniProt P14713, residues 1-651": "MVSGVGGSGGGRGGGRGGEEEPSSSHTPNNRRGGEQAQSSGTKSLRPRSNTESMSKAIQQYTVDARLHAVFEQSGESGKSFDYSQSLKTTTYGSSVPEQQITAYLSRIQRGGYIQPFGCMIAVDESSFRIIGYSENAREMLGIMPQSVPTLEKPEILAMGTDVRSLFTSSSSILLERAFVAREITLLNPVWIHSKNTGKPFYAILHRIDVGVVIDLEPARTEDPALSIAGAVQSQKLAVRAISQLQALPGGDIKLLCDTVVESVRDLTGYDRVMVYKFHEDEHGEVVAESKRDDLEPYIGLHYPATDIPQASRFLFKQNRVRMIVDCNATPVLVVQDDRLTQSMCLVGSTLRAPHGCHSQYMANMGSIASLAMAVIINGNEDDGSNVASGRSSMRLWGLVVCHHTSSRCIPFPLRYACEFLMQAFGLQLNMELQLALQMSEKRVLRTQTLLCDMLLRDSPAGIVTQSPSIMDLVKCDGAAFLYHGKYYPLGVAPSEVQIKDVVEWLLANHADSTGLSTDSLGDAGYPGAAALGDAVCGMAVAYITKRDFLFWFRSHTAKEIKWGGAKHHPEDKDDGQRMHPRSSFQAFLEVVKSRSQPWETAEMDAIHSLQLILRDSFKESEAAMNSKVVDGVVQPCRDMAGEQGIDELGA"},
  "source": "paper PMC6488296",
  "target": "MBP-PIF6_(1-100)-His6 (A. thaliana) (UniProt Q8L5W7)",
  "assay": "SEC; as a1, but PhyB illuminated with saturating 740 nm light (OFF state); both purified",
  "note": "Results are given in words; binding and its absence hold for the method and conditions named.",
  "data": [
    {"substance": "PhyB_(1-651)-Avitag-His6 (from UniProt P14713 1-651) (domain or fragment)", "values": [
      {"measurement": "binding", "value": "no binding (condition: PhyB illuminated with 740 nm light)"}
    ]}
  ]
}
